For the first data set, the system named is Kunming mice. The class given is in vivo, mouse. The conditions noted are these: Table 3; at dose 2×ED50, tail vein injection, male Kunming mice. The protocol: For each drug, 10 male Kunming mice weighing 20-35 g were included, and the dose of each drug was 2×ED50 in mice. After the compound of the present invention and fospropofol were respectively dissolved in saline, the resultant solutions were injected via the mouse tail vein. For propofol, a glucose dilution (5 mg/mL) of a commercially available emulsion of diprivan was selected and injected via the mouse tail vein; while, for another substituted phenol molecule (CAS:1637741-58-2), its 30% fat emulsion was prepared as a medicated emulsion. The concentration of the injectable solution of the compound according to the present invention was 10-15 mg/mL, and the concentration of the injectable solution of fospropofol was 55 mg/mL, while the concentration of the injectable solution of another substituted phenol molecule (CAS:1637741-58-2) was 1 mg/mL. After injection of tested drug, the occurrence time T1 of righting reflex after its disappearance, the duration T2 for the disappearance of righting reflex (i.e. anesthesia time) and the time T3 required for the animal to recover completely after waking up were recorded. Complete recovery refers to the recovery of autonomous activities of animals to the level before administration. In the experiment, animals were not given respiratory support such as oxygen inhalation or intubation.
`CC(C)c1cccc(C(C)C)c1OC(=O)COC(=O)[C@H](C)N` [Compound 4] displayed a Propofol intake of 25 mg/kg. Turning to `CC(C)c1cccc(C(C)C)c1OC(=O)COC(=O)CN1CCOCC1` [Compound 23], the Propofol intake was found to be 27.3 mg/kg. Same read-out and setting: to `CC(C)c1cccc(C(C)C)c1OC(=O)COC(=O)CN1CCOCC1` [Compound 27] belongs 24.6 mg/kg; to `CC(C)c1cccc(C(C)C)c1OC(=O)COC(=O)CN1CCC1.Cl` [Compound 37], 23.7 mg/kg; to `CC(C)c1cccc(C(C)C)c1OC(=O)COC(=O)[C@@H](C)N(C)C.Cl` [Compound 41], 24.3 mg/kg. Still for that read-out and setting: to `CC(C)c1cccc(C(C)C)c1OC(=O)COC(=O)CN1CCCC1.Cl` [Compound 42] belongs 24.8 mg/kg; to `CC(C)C[C@@H](N)C(=O)OCC(=O)Oc1c(C(C)C)cccc1C(C)C.Cl` [Compound 48], 27.4 mg/kg; to `CC(C)c1cccc(C(C)C)c1OCOP(=O)(O)O` [Fospropofol, fospropofol, reference compound], 90 mg/kg.

The data set is the same for the next values; noted with them: Table 4; at dose 2×ED50, tail vein injection, male Kunming mice.
Take `CC(C)c1cccc([C@H](C)C2CC2)c1O` [(R)-2-cyclopropylethyl-6-isopropylphenol, reference compound]: the “Intake of (R)-2-cyclopropylethyl-6-isopropylphenol” value is 3.2 mg/kg. `CC(C)c1cccc([C@H](C)C2CC2)c1OC(=O)COC(=O)CN1CCOCC1.Cl` [Compound 17]: the “Intake of (R)-2-cyclopropylethyl-6-isopropylphenol” value stood at 3.2 mg/kg.

`CC(C)c1cccc([C@H](C)C2CC2)c1OC(=O)COC(=O)CN1CCOCC1` [Compound 19]: the “Intake of (R)-2-cyclopropylethyl-6-isopropylphenol” value was 3.3 mg/kg. For `CC(C)c1cccc([C@H](C)C2CC2)c1OC(=O)COC(=O)CN1CCCCC1.Cl` [Compound 53], the “Intake of (R)-2-cyclopropylethyl-6-isopropylphenol” value was 3.4 mg/kg. For the compound `CC(C)c1cccc([C@@H](C)C2CC2)c1OC(=O)COC(=O)CN1CCCC1.Cl` [Compound 55], the “Intake of (R)-2-cyclopropylethyl-6-isopropylphenol” value was 3.5 mg/kg.

The same data set, now with this note: mouse, in vivo.
`CC(C)c1cccc(C(C)C)c1OC(=O)COC(=O)CN` [Compound 1]: the Propofol intake is on record as 27 mg/kg. Take `CNCC(=O)OCC(=O)Oc1c(C(C)C)cccc1C(C)C` [Compound 2]: the Propofol intake is recorded as 28 mg/kg. `CC(C)c1cccc(C(C)C)c1OC(=O)COC(=O)CN(C)C` [Compound 3] came in with a Propofol intake of 24.4 mg/kg. `CC(C)c1cccc(C(C)C)c1OC(=O)COC(=O)CN1CCN(C)CC1` [Compound 7]: the Propofol intake amounted to 28.4 mg/kg.

Turning to `CC(C)c1cccc(C(C)C)c1OC(=O)COC(=O)CN1CCOCC1` [Compound 22], the Propofol intake came to 26 mg/kg. For the compound `CC(C)c1cccc(C(C)C)c1OC(=O)COC(=O)CN1CCCCC1` [Compound 29], the Propofol intake worked out at 26.2 mg/kg.

In turn, `CC(C)c1cccc(C(C)C)c1O` [Propofol, reference compound] came in with a Propofol intake of 25 mg/kg.

For the origin of these results see patent publication US12358863B2, “Nitrogen-containing derivative of substituted phenol hydroxy acid ester, and preparation and use thereof” (priority 2019, dated 2025).
